Measurements reported in PubChem BioAssay AID662 (National Center for Advancing Translational Sciences (NCATS), 2007).
Some of the results follow. These are further read-outs of the screen, such as a control signal, another cell line or another target. No call is given for them. Most of these compounds were active or inconclusive in the main read-out, so they are no random draw. Words in brackets tell the shape of the fitted curve; partial curves, single points and poor fits give uncertain potencies.

Test: Cell signaling CRE-BLA (Fsk stim)
Settings: CHO CRE-bla reporter (cAMP response element driving beta-lactamase), forskolin EC10, beta-lactamase ratio; measured here: 460 nm blue channel
Procedure, shortened: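 CHO CRE-bla cells, overnight plating in Opti-MEM with 0.5% dialyzed FBS; cpd titration + EC10 NKH 477, 3 h 37 °C; CCF4 2 h RT; ex 405/em 460 vs 530 ratio → %Activity, AC50.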

Question: Which AC50 does the source give for `CCOC(=O)C1CCN(C(=O)CCc2nc3ccccc3[nH]2)CC1` here?
Answer: The AC50 was 0.1 µM [falling, full curve, poor fit].

Question: With `Cc1ccc(S(=O)(=O)Nc2ccc3oc(=O)sc3c2)c(C)c1` as the molecule, how does the AC50 read?
Answer: Its AC50 is 15.8 µM [falling, single point].

Question: Which AC50 does the source give for `O=C(c1cc(-c2ccco2)nn1-c1cccc(Cl)c1)N1CCCCC1` here?
Answer: The AC50 was 0.251 µM [falling, partial curve].

Question: Which AC50 does the source give for `CCCN(c1nc(C)cc(OC)n1)S(=O)(=O)c1ccccc1` here?
Answer: The AC50 was 0.398 µM [falling, single point].

Question: Which AC50 does the source give for `O=C(CCN1C(=O)C2C3C=CC(C3)C2C1=O)Nc1ccc(F)cc1` (stereo not drawn) here?
Answer: The AC50 was 25.1 µM [falling, single point].

Question: Which AC50 does the source give for `CN(C)CCSc1nc(N)c2c3c(sc2n1)CN(C)CC3` here?
Answer: The AC50 was 5.01 µM [falling, single point].

Question: For `CCOC(=O)CNC(=O)CSc1nnc(Cn2c(=O)sc3ccccc32)n1-c1ccccc1C`, which AC50 is on record?
Answer: The AC50 was 25.1 µM [rising, single point].

Question: Which AC50 does the source give for `Cn1c(=O)c(-c2cccc(C#N)c2)nc2cnc(Oc3ccccc3)nc21` here?
Answer: Its AC50 is 10 µM [rising, single point].

Question: Which AC50 does the source give for `COc1ccccc1N1CCN(CC(O)COc2ccc3c(C)cc(=O)oc3c2)CC1` (stereo not drawn) here?
Answer: Its AC50 is 12.6 µM [rising, partial curve].

Question: For `Cc1[nH]nc2ncc(C(=O)c3ccccc3O)cc12`, which AC50 is on record?
Answer: The AC50 was 3.98 µM [falling, partial curve].

Question: Which AC50 does the source give for `Brc1ccc2[nH]c3nc(SCCN4CCOCC4)nnc3c2c1` here?
Answer: The AC50 was 2 µM [rising, full curve].

Question: Which AC50 does the source give for `c1nc(N2CCC3(CC2)OCCO3)c2c3c(sc2n1)CCCC3` here?
Answer: The AC50 was 3.16 µM [rising, single point].

Question: For `O=C(Oc1ccc(Cl)c2cccnc12)N1CCOCC1`, which AC50 is on record?
Answer: The AC50 was 7.94 µM [rising, partial curve].

Question: For `Brc1ccc2c(c1)c1nc3ccccc3nc1n2CCN1CCOCC1`, which AC50 is on record?
Answer: The AC50 was 7.94 µM [rising, partial curve].

Question: Which AC50 does the source give for `Cc1[nH]c(N)nc(=S)c1CCC(=O)O` here?
Answer: The AC50 was 0.158 µM [falling, partial curve, poor fit].

Question: Which AC50 does the source give for `Cc1ccc(CNc2oc(-c3ccco3)nc2C#N)cc1` here?
Answer: Its AC50 is 12.6 µM [rising, partial curve].

Question: For `COc1ccc(CNc2ncncc2-c2cccnc2)c(OC)c1`, which AC50 is on record?
Answer: Its AC50 is 12.6 µM [rising, partial curve].

Question: Which AC50 does the source give for `Cc1cnc(CNc2nc(-c3ccccc3C(F)(F)F)nc3ccccc23)cn1` here?
Answer: The AC50 was 12.6 µM [rising, partial curve].

Question: Which AC50 does the source give for `COC(=O)CSc1nc2ccccc2nc1SCC(=O)OC` here?
Answer: Its AC50 is 12.6 µM [rising, single point].

Question: Which AC50 does the source give for `Cc1c(NC(=O)OCCSc2nc(N(C)C)nc(N(C)C)n2)sc(=S)n1C` here?
Answer: The AC50 was 10 µM [rising, partial curve].

Question: With `O=c1cc(CO)oc(C(Nc2ccccn2)c2ccc(C(F)(F)F)cc2)c1O` (stereo not drawn) as the molecule, how does the AC50 read?
Answer: Its AC50 is 5.01 µM [falling, partial curve, poor fit].

Question: Which AC50 does the source give for `Clc1ccc(Cn2ncc3c(N4CCCC4)ncnc32)cc1` here?
Answer: The AC50 was 10 µM [rising, partial curve].

Question: For `Cc1ccc(C)n1NC(=O)c1cccs1`, which AC50 is on record?
Answer: The AC50 was 31.6 µM [falling, single point].

Question: Which AC50 does the source give for `CCOC(=O)N1CCC(NC(=O)c2cc3c(-c4cccc(OC)c4)nn(C)c3s2)CC1` here?
Answer: The AC50 was 10 µM [rising, partial curve].

Question: Which AC50 does the source give for `CCOC(=O)CSc1nc2c(c(=O)n(C)c(=O)n2C)n1Cc1ccccc1F` here?
Answer: The AC50 was 15.8 µM [rising, partial curve].

Question: For `COc1ccc(-c2ccc(-c3noc(-c4ccccc4)n3)c(OC)n2)cc1`, which AC50 is on record?
Answer: The AC50 was 15.8 µM [rising, single point].

Question: Which AC50 does the source give for `Cc1cc(C)nc(SCC(=O)Nc2ccc(Br)cn2)n1` here?
Answer: The AC50 was 10 µM [rising, single point].

Question: For `CCC(c1nc2ccccc2c(=O)n1CCCn1ccnc1)N1C(=O)c2ccccc2C1=O` (stereo not drawn), which AC50 is on record?
Answer: Its AC50 is 5.01 µM [rising, partial curve].

Question: For `CCOc1ccc(CCNc2cc(C)nc3ncnn23)cc1OCC`, which AC50 is on record?
Answer: Its AC50 is 15.8 µM [rising, single point].

Question: For `Cc1cc(C(F)(F)F)nn1CC(=O)Nc1cccnc1`, which AC50 is on record?
Answer: The AC50 was 0.0794 µM [falling, partial curve, poor fit].

Question: Which AC50 does the source give for `O=C(Nc1cc(N2CCOCC2)ncn1)Nc1cccc2ccccc12` here?
Answer: Its AC50 is 0.794 µM [rising, full curve].

Question: Which AC50 does the source give for `O=C(CN1CCOCC1)N1CCN(S(=O)(=O)c2ccccc2)C1c1ccccc1` (stereo not drawn) here?
Answer: The AC50 was 0.501 µM [falling, full curve].

Question: For `NC1=NC(c2ccccc2Cl)n2c(nc3ccccc32)N1` (stereo not drawn), which AC50 is on record?
Answer: Its AC50 is 7.94 µM [falling, partial curve].

Question: For `COc1nc(NCC(C)C)nc(Oc2ccc(OCc3ccccc3)nn2)n1`, which AC50 is on record?
Answer: The AC50 was 10 µM [rising, single point].

Question: With `O=c1c2ccccc2nnn1CSc1ncnc2ccccc12` as the molecule, how does the AC50 read?
Answer: Its AC50 is 0.398 µM [falling, full curve].

Question: For `NC(=O)CSc1cn(CCNC(=O)c2cccs2)c2ccccc12`, which AC50 is on record?
Answer: The AC50 was 10 µM [rising, partial curve].

Question: With `c1cncc(CNc2nc(-c3ccc4c(c3)OCO4)nc3ccccc23)c1` as the molecule, how does the AC50 read?
Answer: Its AC50 is 15.8 µM [rising, partial curve].

Question: With `COC(=O)c1cc(COC(=O)c2ccc(OC)c(S(=O)(=O)N3CCCC3)c2)oc1C` as the molecule, how does the AC50 read?
Answer: The AC50 was 10 µM [rising, single point].

Question: Which AC50 does the source give for `COc1cc(Br)cc(CN2CCN(C/C=C/c3ccccc3)CC2)c1O` here?
Answer: The AC50 was 10 µM [falling, partial curve].

Question: With `CSc1nc2oc3c(c2c2nncn12)CC(C)(C)SC3` as the molecule, how does the AC50 read?
Answer: The AC50 was 3.98 µM [rising, partial curve].

Question: Which AC50 does the source give for `Cc1cc(C)c2nc(C(F)(F)F)nc(N3CC(C)OC(C)C3)c2c1` (stereo not drawn) here?
Answer: Its AC50 is 0.00398 µM [falling, full curve, poor fit].

Question: Which AC50 does the source give for `Cc1ccc(S(=O)(=O)NCc2ccc(C(=O)NCCCN3CCN(C)CC3)cc2)cc1` here?
Answer: Its AC50 is 10 µM [falling, single point].

Question: Which AC50 does the source give for `O=C(Cn1cnnn1)Nc1ccccc1Cc1ccccc1` here?
Answer: The AC50 was 5.01 µM [falling, single point].

Question: For `Cc1ccc(NC2=NC(C(=O)Nc3ccc(C)c(C)c3)CC(=O)N2)cc1` (stereo not drawn), which AC50 is on record?
Answer: Its AC50 is 6.31 µM [falling, full curve, poor fit].

Question: With `COc1ccc(-c2onc3ccc(Cl)cc23)cc1OC` as the molecule, how does the AC50 read?
Answer: The AC50 was 7.94 µM [rising, partial curve].

Question: Which AC50 does the source give for `O=C(NCC1CCS(=O)(=O)C1)NCC1CCS(=O)(=O)C1` (stereo not drawn) here?
Answer: The AC50 was 2.51 µM [falling, full curve, poor fit].

Question: For `Cn1c(=O)c2c(nc(N3CCCCC3)n2CCCNC2=NCCCC2)n(C)c1=O`, which AC50 is on record?
Answer: Its AC50 is 10 µM [falling, partial curve].

Question: With `COc1ccccc1NC(=O)CN1CCC(n2c(C)nc3cc(F)ccc32)CC1` as the molecule, how does the AC50 read?
Answer: The AC50 was 2 µM [rising, full curve].

Question: Which AC50 does the source give for `C=CCn1c(C)cc(C(=O)CSc2nnc(NCc3ccccc3)s2)c1C` here?
Answer: The AC50 was 20 µM [rising, single point].

Question: With `COc1ccccc1N1CCN(C(c2cc3ccc(C)cc3[nH]c2=O)c2nnnn2C2CCCC2)CC1` (stereo not drawn) as the molecule, how does the AC50 read?
Answer: The AC50 was 31.6 µM [falling, partial curve].

Question: Which AC50 does the source give for `O=C(CSc1nnc(-c2cccnc2)n1Cc1ccco1)c1ccccc1` here?
Answer: Its AC50 is 10 µM [rising, single point].

Question: Which AC50 does the source give for `COc1ccccc1-c1ccc2ncnc(NCCN3CCOCC3)c2c1` here?
Answer: Its AC50 is 3.98 µM [rising, partial curve].

Question: For `CCc1ccc2[nH]c(=O)c(CN(CCN(C)C)C(=O)Nc3ccccc3)cc2c1`, which AC50 is on record?
Answer: Its AC50 is 3.16 µM [falling, full curve].

Question: For `COc1cc(C2Nc3cccc4cccc(c34)N2)cc(OC)c1O`, which AC50 is on record?
Answer: Its AC50 is 10 µM [falling, partial curve].

Question: With `CCn1c(SCc2nc3ccccc3nc2C)nnc1-c1cccs1` as the molecule, how does the AC50 read?
Answer: Its AC50 is 2.51 µM [rising, partial curve].

Question: For `Cc1ccc(-c2nc3cccnc3s2)cc1NC(=O)c1ccco1`, which AC50 is on record?
Answer: The AC50 was 25.1 µM [falling, partial curve, poor fit].

Question: With `CN(Cc1ccccc1)c1nc2c(c(=O)[nH]c(=O)n2C)n1CCCSc1ncccn1` as the molecule, how does the AC50 read?
Answer: Its AC50 is 10 µM [rising, single point].

Question: Which AC50 does the source give for `O=S1(=O)N=C(N2CCc3ccccc3C2)c2ccccc21` here?
Answer: The AC50 was 12.6 µM [falling, partial curve].

Question: With `COc1cccc(Cn2c(=O)c(-c3ccc(Cl)cc3)nc3cnc(N(C)C)nc32)c1` as the molecule, how does the AC50 read?
Answer: The AC50 was 0.398 µM [rising, full curve].

Question: For `CC1CN(c2nc3ccccn3c(=O)c2/C=C(\C#N)S(=O)(=O)c2ccccc2)CC(C)O1` (stereo not drawn), which AC50 is on record?
Answer: Its AC50 is 20 µM [rising, single point].

Question: With `O=C(NC1(C(F)(F)F)Oc2ccccc2O1)N1CCCC1` as the molecule, how does the AC50 read?
Answer: Its AC50 is 2.51 µM [falling, partial curve, poor fit].

Question: With `CCOC(=O)c1cc(-c2ccc3c(c2)OCCO3)nc2c1c(C)nn2CCC#N` as the molecule, how does the AC50 read?
Answer: Its AC50 is 7.94 µM [rising, partial curve].

Question: For `CS(=O)(=O)c1ccc2nc(NC(=O)Oc3ccccc3)sc2c1`, which AC50 is on record?
Answer: Its AC50 is 25.1 µM [rising, single point].

Question: With `COc1ccccc1CNc1cc(-c2cccc(C#N)c2)ncn1` as the molecule, how does the AC50 read?
Answer: Its AC50 is 5.01 µM [rising, full curve].

Question: With `Cc1ccc(-c2cc(C(F)F)n3ncc(C(=O)N4CCN5CCCC5C4)c3n2)cc1` (stereo not drawn) as the molecule, how does the AC50 read?
Answer: The AC50 was 25.1 µM [rising, single point].

Question: For `CC(C)(C)NC(=O)CN(C(=O)CS(=O)CC(=O)Nc1ccc(F)cc1)c1ccc(Cl)cc1` (stereo not drawn), which AC50 is on record?
Answer: Its AC50 is 10 µM [falling, partial curve].

Question: For `O=C(COc1ccc(S(=O)(=O)N2CCCC2)cc1Cl)Nc1ccc2c(c1)OCO2`, which AC50 is on record?
Answer: Its AC50 is 0.00398 µM [falling, full curve, poor fit].

Question: For `Cc1ccc2c(CSc3nc4ccccc4c(=O)n3CCCO)cc(=O)oc2c1`, which AC50 is on record?
Answer: The AC50 was 3.98 µM [rising, partial curve].
